Two molecules from paper PMC4823986 can be followed below.

Assay [1] concerns the target T1, Clueless (Clu), endogenous in S2R+ cells (Drosophila (endogenous in S2R+ cells)) (UniProt A1ZAB5).
T1 sequence: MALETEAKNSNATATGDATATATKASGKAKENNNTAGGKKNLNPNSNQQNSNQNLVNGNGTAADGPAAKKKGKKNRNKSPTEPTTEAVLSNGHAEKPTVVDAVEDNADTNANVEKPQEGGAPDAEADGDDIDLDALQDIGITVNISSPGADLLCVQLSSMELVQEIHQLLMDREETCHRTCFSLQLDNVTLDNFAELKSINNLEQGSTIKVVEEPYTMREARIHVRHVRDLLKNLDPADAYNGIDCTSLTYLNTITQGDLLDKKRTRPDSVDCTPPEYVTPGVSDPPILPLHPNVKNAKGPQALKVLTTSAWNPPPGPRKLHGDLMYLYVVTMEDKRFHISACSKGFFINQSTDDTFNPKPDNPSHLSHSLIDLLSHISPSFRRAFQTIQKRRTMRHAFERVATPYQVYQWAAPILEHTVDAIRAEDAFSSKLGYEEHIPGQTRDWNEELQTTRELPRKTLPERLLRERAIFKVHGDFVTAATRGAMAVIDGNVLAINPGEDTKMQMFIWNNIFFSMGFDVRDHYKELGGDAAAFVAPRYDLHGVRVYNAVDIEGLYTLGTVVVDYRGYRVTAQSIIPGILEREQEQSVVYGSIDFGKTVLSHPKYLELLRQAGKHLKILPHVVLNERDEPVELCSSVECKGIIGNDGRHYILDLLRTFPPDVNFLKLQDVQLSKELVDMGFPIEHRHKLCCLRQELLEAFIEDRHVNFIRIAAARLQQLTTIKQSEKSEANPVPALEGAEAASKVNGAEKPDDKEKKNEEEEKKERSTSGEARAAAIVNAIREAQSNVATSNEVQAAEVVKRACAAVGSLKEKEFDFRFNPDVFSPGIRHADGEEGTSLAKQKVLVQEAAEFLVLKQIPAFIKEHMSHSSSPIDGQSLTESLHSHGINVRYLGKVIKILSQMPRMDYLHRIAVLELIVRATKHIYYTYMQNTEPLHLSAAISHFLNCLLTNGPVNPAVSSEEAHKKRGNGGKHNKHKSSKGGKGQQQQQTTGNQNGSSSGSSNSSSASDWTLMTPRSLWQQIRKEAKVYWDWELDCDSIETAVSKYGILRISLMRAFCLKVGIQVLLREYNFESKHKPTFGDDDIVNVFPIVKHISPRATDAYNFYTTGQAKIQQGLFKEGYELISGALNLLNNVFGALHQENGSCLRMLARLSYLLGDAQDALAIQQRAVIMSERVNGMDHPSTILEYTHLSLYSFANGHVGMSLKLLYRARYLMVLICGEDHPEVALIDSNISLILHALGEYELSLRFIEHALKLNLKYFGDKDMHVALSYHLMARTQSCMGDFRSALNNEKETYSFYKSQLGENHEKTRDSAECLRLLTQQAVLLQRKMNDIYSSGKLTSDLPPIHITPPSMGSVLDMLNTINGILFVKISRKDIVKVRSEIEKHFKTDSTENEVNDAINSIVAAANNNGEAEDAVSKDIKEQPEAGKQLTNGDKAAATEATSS
The assay can be described thus: co-IP; S2R+ cells transfected with myc-tagged proteins; reciprocal co-IPs with Clu, western blot.

The target of assay [2] is myc-tagged Drosophila eIF3gb (Drosophila). The assay is described as above.

These are yes or no findings as the source states them, for the method shown. Binding seen in cells or lysates may run through a third protein. A result given as binding can be weak or reduced; the word gives no strength.

In the case of myc-tagged Drosophila eIF3gb, the binding result in assay [1] was “binds”.

B1: Clueless (Clu), endogenous in S2R+ cells (protein, UniProt A1ZAB5 1-1448)
chain: T1 sequence
Take B1: in assay [2], the binding result is reported as “binds”.
